“And” between values parts separate entries of the source, which are not always exact repeats. Equal entries are not always repeated. In all, about 350,000 compounds went through this assay and about 6,000 (1.7%) were called active. This list was built around the results that the source calls inconclusive (neither active nor inactive); the mix of calls is not that of the screen. Cut-off read from the data, not from the text of the source: active = CPE inhibition above about 20% (passing the limit was not always enough); inconclusive = no clear call, values can overlap the other calls; tested in BHK-21 cells.
Experiment: protection of cells from dengue 2 killing – plate reader, single concentration, primary screen (AID 651640);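 note: 0% = median of neutral control wells and 100% = median of positive control wells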
Settings: DENV2-infected cells, cytopathic effect rescue, at 9.99 µM, hits give high values

| Structure (SMILES) | CPE inhibition |
| --- | --- |
| CC(C)C#Cc1cnc2c(c1)C(=O)N([C@H](C)CO)C[C@@H](C)[C@H](CN(C)Cc1cccc(F)c1)O2 | inactive: -6.3% |
| CCCNC(=O)C[C@H]1CC[C@H]2[C@@H](COc3ccc(NC(=O)CC)cc3C(=O)N2C)O1 | inconclusive: 38.7% |
| O=C(Nc1ccccc1)N1CCCCN2[C@H](CO)[C@H](c3ccc(-c4ccccc4)cc3)[C@H]2C1 | inconclusive: 27.9% |
| Cc1ccccc1S(=O)(=O)N1CC(=O)N2[C@H](CO)[C@H](c3ccc(C#Cc4ccccc4)cc3)[C@H]2C1 | active: 23.7% |
| Cc1ccccc1-c1ccc(C2[C@@H]3CN(C(=O)Nc4cccc(F)c4)C[C@H]2N3)cc1 (stereo partly drawn) | inconclusive: 54.4% |
| CCCCC(C(=O)NC(C)c1ccccc1)C(=O)NC(C)c1ccccc1 (stereo not drawn) | inconclusive: 20.6% |
| Cc1ccc(-c2noc(COC(=O)c3ccco3)n2)cc1 | inconclusive: 41.5% |
| CCn1c(SCC(=O)Nc2ccc3c(c2)n(C)c(=O)n3C)nnc1-c1ccncc1 | inconclusive: 95.4% |
| CCNC(=O)C1CCCN(C(=O)c2cc(F)ccc2C)CC1 (stereo not drawn) | inconclusive: 30.1% |
| COCCNC(=O)/C(C#N)=C/c1c(N2CCN(C)CC2)nc2ccccn2c1=O | inconclusive: 21.3% |
| CC1OC2(C)OC(=N)C1(C#N)C(C#N)(C#N)C2c1ccccc1 (stereo not drawn) | inconclusive: 23% |
| C[C@H](CO)N1C[C@H](C)[C@@H](CN(C)Cc2ccccc2)Oc2c(NS(=O)(=O)c3ccc(Cl)cc3)cccc2C1=O | inactive: 1.49% |
| COc1ccc(S(=O)(=O)Nc2ccc3c(c2)C(=O)N([C@H](C)CO)C[C@@H](C)[C@@H](CN(C)C(=O)Nc2ccc(C(F)(F)F)cc2)OCCCC[C@@H](C)O3)cc1 | active: 52.6% |
| COc1ccc(OC)c(C(=O)c2ccc([N+](=O)[O-])cc2)c1 | inconclusive: 23% |
| COC(C/C=C/[C@H](O)[C@@H](C)OCc1ccccc1)OC | inconclusive: 20.7% |
| O=C(C[C@@H]1C=C[C@@H](NC(=O)Nc2ccccc2F)[C@H](CO)O1)NCc1ccc(-c2ccccc2)cc1 | inactive: 11.7% |
| Cc1ccc(S(=O)(=O)N(C)C[C@@H]2Oc3ncc(C#CCN(C)C)cc3C(=O)N([C@H](C)CO)C[C@@H]2C)cc1 | inconclusive: 40.8% |
| C[C@@H]1CN([C@@H](C)CO)C(=O)Cc2cc(NC(=O)NC3CCCCC3)ccc2O[C@H]1CN(C)CC1CCCCC1 | inactive: -15.5% |
| O=C(OCC(=O)N(Cc1ccccc1)Cc1ccccc1)c1ccccc1NCCO | inconclusive: 46.9% |
| COc1ccc(COC(=O)C2=C(C)NC(=O)NC2c2ccc(O)cc2)cc1 (stereo not drawn) | inconclusive: 30.8% |
| CO[C@@H]1CN(C)C(=O)c2ccc(NS(=O)(=O)c3cccc(F)c3)cc2OC[C@H](C)N(Cc2cc(F)ccc2F)C[C@@H]1C | active: 28.3% |
| CC(C)N1C(=O)CCC1C(=O)O (stereo not drawn) | active: 33% |
| COCCN1C(=O)C(=O)/C(=C(/O)c2ccc(S(=O)(=O)N3CCCCC3)cc2)C1c1ccc(OC)cc1 (stereo not drawn) | inconclusive: 31.4% |

| Structure (SMILES) | CPE inhibition |
| --- | --- |
| CCNC(=O)N(CC)C[C@H]1N[C@@](C)(C(=O)OC)[C@H]2C(=O)N(C)C(=O)[C@@H]12 | active: 45.5% |
| C[C@H]1CN([C@@H](C)CO)C(=O)c2cc(NS(=O)(=O)c3ccccc3)ccc2O[C@@H]1CN(C)Cc1ccc(C(=O)O)cc1 | inactive: -5.8% |
| CN1c2ccc(Br)cc2[C@@H]2[C@@H](CCN2S(=O)(=O)c2cccc(F)c2)[C@@H]1CO | inconclusive: 32.4% |
| Cc1cccc(S(=O)(=O)N2CC[C@@H]3[C@@H](CO)N(C)c4ccc(-c5ccccc5F)cc4[C@@H]32)c1 | active: 34.6% |
| CCCCCCNC(=O)CCCCCNS(=O)(=O)c1ccc(OC)cc1 | inconclusive: 27.6% |
| C[C@@H]1CCCCO[C@H](CN(C)Cc2ccccc2)[C@H](C)CN([C@H](C)CO)C(=O)c2cc(NC(=O)CCC(F)(F)F)ccc2O1 | active: 37.3% |
| C[C@H](NC(=O)C[C@@H]1C[C@H]2c3cc(NC(=O)CN(C)C)ccc3O[C@H]2[C@H](CO)O1)c1ccccc1 | inconclusive: 20.3% |
| C[C@@H]1CN([C@H](C)CO)C(=O)c2cccc(NC(=O)c3ccncc3)c2O[C@H]1CN(C)C(=O)Nc1ccccc1 | inconclusive: 44.3% |
| C[C@@H]1CN([C@H](C)CO)C(=O)c2cc(-c3ccccc3)cnc2O[C@@H]1CN(C)C(=O)c1ccccc1F | active: 105% |
| C=CCN(CC=C)c1ncnc2[nH]ncc12 | inconclusive: 44.5% |
| Cc1ccccc1/C=C1\C(=O)Nc2ccc(F)cc21 | inactive: -1.42% |
| COC(=O)[C@]12CCCCC=C1N(CCC1=CCCCC1)C(=O)[C@H](CC(=O)NCc1ccccc1)C2 | inconclusive: 23.4% |
| CC(C)NC(=O)Nc1ccc2c(c1)C(=O)N([C@@H](C)CO)C[C@@H](C)[C@@H](CN(C)Cc1ccncc1)OCCCC[C@H](C)O2 | inactive: 1.05% |
| COC(=O)C1=CN(Cc2ccc(OC)c(OC)c2)C=C(C(=O)OC)C1c1ccc(O)cc1 | inconclusive: 46.3% |
| CCCNC(=O)Nc1ccc2c(c1)C(=O)N(C)C[C@@H](OC)[C@H](C)CN(Cc1cncnc1)[C@H](C)CO2 | inconclusive: 20.7% |
| COc1cc(OC)c2c(-c3ccccc3)cc(=O)oc2c1C(CCN1CCCC1)c1ccc2c(c1)OCO2 (stereo not drawn) | inactive: -0.792% |
| COc1cc(OC)cc(C(=O)Nc2ccc3nc4n(c(=O)c3c2)CCCC4)c1 | active: 119% |
| COc1ccccc1CC(=O)NNC(=O)c1ccco1 | inconclusive: 23.5% |
| C[C@@H]1CCCCO[C@H](CN(C)C(=O)C2CCCCC2)[C@H](C)CN([C@H](C)CO)C(=O)c2cc(NS(=O)(=O)c3ccc(Cl)cc3)ccc2O1 | active: 38.6% |
| COC(=O)CCC(=O)N1CCOCCOCCOCC1 | inactive: 0.657% |
| O=C1CN(S(=O)(=O)c2ccccc2)C[C@@H]2[C@@H](c3ccc(C#Cc4ccccc4)cc3)[C@@H](CO)N12 | inactive: 3.92% |
| CCCCCCSc1ccc([C@@H]2[C@H]3C(=O)N(CC)C(=O)[C@H]3[C@]3(C(=O)OC)CCCCN23)cc1OC | inconclusive: 43.3% |
| CC(C)[C@@H]1O[C@H](CCc2ccccc2)CC2=C1C(=O)OC(C)(C)O2 | inconclusive: 34.3% |

Pulled by compound from the entries so far (6):

| Structure (SMILES) | CPE inhibition |
| --- | --- |
| CCCCCCNC(=O)CCCCCNS(=O)(=O)c1ccc(OC)cc1 | inconclusive: 27.6% |
| CCCCCCSc1ccc([C@@H]2[C@H]3C(=O)N(CC)C(=O)[C@H]3[C@]3(C(=O)OC)CCCCN23)cc1OC | inconclusive: 43.3% |
| C[C@@H]1CCCCO[C@H](CN(C)C(=O)C2CCCCC2)[C@H](C)CN([C@H](C)CO)C(=O)c2cc(NS(=O)(=O)c3ccc(Cl)cc3)ccc2O1 | active: 38.6% |
| Cc1ccccc1/C=C1\C(=O)Nc2ccc(F)cc21 | inactive: -1.42% |
| C=CCN(CC=C)c1ncnc2[nH]ncc12 | inconclusive: 44.5% |
| COc1ccccc1CC(=O)NNC(=O)c1ccco1 | inconclusive: 23.5% |

Remaining list, next part

| Structure (SMILES) | CPE inhibition |
| --- | --- |
| O=C(c1ccc(F)cc1)N1CC(=O)N2[C@H](C1)[C@H](c1ccc(-c3ccccc3F)cc1)[C@@H]2CO | active: 25.8% |
| C[C@@H]1CN([C@H](C)CO)C(=O)c2cc(NC(=O)Cc3cn(C)c4ccccc34)ccc2O[C@@H]1CN(C)Cc1ccc(Oc2ccccc2)cc1 | inconclusive: 29.3% |
| CCC(=O)Nc1ccc2c(c1)C(=O)N(C)C[C@H](OC)[C@@H](C)CN(Cc1ccccn1)[C@H](C)CO2 | inactive: -1.56% |
| CNC[C@H]1OCCCC[C@H](C)Oc2ccc(NC(=O)Nc3c(C)noc3C)cc2C(=O)N([C@H](C)CO)C[C@H]1C | inconclusive: 131% |
| CNC(=O)C[C@H]1CC[C@@H]2[C@@H](COc3ccc(NC(=O)c4ccc(F)c(F)c4)cc3C(=O)N2C)O1 | inconclusive: 78.9% |
| Cc1cccc(Cn2c(N3CCCCC3C)nc3c2c(=O)[nH]c(=O)n3C)c1 (stereo not drawn) | inconclusive: 23.2% |
| C[C@@H]1CCCCO[C@@H](CN(C)S(=O)(=O)c2ccccc2)[C@H](C)CN([C@@H](C)CO)C(=O)c2cc(NC(=O)C3CCCCC3)ccc2O1 | inactive: -8.28% |
| CO[C@H]1CN(C)C(=O)c2cc(NC(C)=O)ccc2OC[C@@H](C)N(C(=O)c2ccccc2)C[C@@H]1C | active: 23.8% |
| CCCNC(=O)N1C[C@H](C)[C@@H](OC)CN(C)C(=O)c2cc(NC(C)=O)ccc2OC[C@@H]1C | inactive: 10.2% |
| Cc1ccc(S(=O)(=O)N2C[C@@H](C)[C@]3(C2)[C@H](O)[C@H](OC(=O)Nc2cccs2)C[C@H]2C(=O)N(c4ccccc4)C(=O)[C@H]23)cc1 | inconclusive: 36.9% |
| OC[C@@H]1[C@H](c2ccc(-c3ccccc3F)cc2)[C@H]2CN(Cc3cncnc3)CCCCN12 | inconclusive: 25.8% |
| COc1ccc(S(=O)(=O)N(C)C[C@@H]2Oc3ncc(-c4ccncc4)cc3C(=O)N([C@@H](C)CO)C[C@@H]2C)cc1 | active: 50.8% |
| Cc1cc([N+](=O)[O-])nn1CC(=O)N1CCOCC1 | inactive: -6.51% |
| CCN(CC)c1ccc(S(=O)(=O)N2CCOCC2)cc1NC(=O)CNCc1ccccc1 | inactive: -5.01% |
| Cc1cc(Cl)c2oc(C(=O)N(C)CCCCN3CCOCC3)c(C)c2c1 | active: 22.2% |
| C[C@H]1CN([C@@H](C)CO)C(=O)c2cc(NC(=O)Nc3cccc4ccccc34)ccc2O[C@@H]1CN(C)Cc1ccc(-c2ccccc2)cc1 | inactive: 16.9% and inactive: -8.31% |
| Cc1ccc(S(=O)(=O)N(C)C[C@@H]2OCc3cnnn3CCCC(=O)N([C@@H](C)CO)C[C@H]2C)cc1 | inconclusive: 27.8% |
| CCOc1ccc(NC(=O)CSc2nnnn2C2CCCC2)cc1 | inconclusive: 28.6% |
| COc1cccc(Nc2nc(-c3sc(NC(=O)c4ccccc4)nc3C)cs2)c1 | inconclusive: 75.4% |
| O=[N+]([O-])c1ccc(Cl)c(S(=O)(=O)/N=C(/Nc2cccnc2)c2ccccc2)c1 | inconclusive: 23.3% |
| Cc1ccccc1S(=O)(=O)N[C@H]1CC[C@H](CCNS(=O)(=O)c2cccc(F)c2)O[C@H]1CO | inactive: -2.31% |
| COc1ccc(S(=O)(=O)N2CCCCC2c2cc(C(=O)Nc3ccc(OC)cc3C)no2)cc1 (stereo not drawn) | inconclusive: 50.4% |

— PubChem BioAssay AID651640 (Broad Institute, 2012)
